Assay results reported in PMC2323224.
These are yes or no findings as the source states them, for the method shown. A result given as binding can be weak or reduced; the word gives no strength.

Sequences of proteins named here, by UniProt entry; tags and fusion partners are left off. A change or cut given only in a name is not applied to a line headed by its entry.
UniProt P96747: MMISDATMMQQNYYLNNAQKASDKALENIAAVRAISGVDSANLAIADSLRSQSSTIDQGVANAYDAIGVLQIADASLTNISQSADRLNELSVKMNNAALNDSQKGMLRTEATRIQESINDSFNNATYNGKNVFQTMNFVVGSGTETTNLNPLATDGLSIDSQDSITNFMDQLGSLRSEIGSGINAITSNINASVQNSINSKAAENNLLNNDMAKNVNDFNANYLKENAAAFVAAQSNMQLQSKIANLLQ

How the values were obtained:
Test in all cases: two-hybrid; LexA-based yeast two-hybrid; full length ORFs as LexA BD fusions (MAL62 promoter, strain Y309) mated with AD fusions (GAL1 promoter, strain RFY231); two-phase pooled matrix screen plus a library screen of 94 BD strains; LEU2 and lacZ reporters, background-corrected combined score >= 1; positives retested in one-on-one matings
[1] = target: T1, PyrC2 (C. jejuni NCTC11168) (UniProt Q0P961)
T1 sequence: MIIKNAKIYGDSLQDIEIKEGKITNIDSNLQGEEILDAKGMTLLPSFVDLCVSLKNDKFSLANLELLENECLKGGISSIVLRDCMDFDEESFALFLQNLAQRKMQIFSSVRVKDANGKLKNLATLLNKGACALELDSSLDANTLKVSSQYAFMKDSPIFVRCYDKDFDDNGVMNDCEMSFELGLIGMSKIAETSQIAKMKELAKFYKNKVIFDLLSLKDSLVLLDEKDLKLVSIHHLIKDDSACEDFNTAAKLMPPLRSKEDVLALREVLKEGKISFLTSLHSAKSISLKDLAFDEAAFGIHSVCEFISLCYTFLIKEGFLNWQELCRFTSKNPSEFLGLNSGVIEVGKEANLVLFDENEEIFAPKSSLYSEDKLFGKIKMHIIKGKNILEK

[2] = target: FlaC (C. jejuni NCTC11168) (UniProt P96747)
[3] = target: T2, FlaA (C. jejuni NCTC11168) (UniProt P56963)
T2 sequence: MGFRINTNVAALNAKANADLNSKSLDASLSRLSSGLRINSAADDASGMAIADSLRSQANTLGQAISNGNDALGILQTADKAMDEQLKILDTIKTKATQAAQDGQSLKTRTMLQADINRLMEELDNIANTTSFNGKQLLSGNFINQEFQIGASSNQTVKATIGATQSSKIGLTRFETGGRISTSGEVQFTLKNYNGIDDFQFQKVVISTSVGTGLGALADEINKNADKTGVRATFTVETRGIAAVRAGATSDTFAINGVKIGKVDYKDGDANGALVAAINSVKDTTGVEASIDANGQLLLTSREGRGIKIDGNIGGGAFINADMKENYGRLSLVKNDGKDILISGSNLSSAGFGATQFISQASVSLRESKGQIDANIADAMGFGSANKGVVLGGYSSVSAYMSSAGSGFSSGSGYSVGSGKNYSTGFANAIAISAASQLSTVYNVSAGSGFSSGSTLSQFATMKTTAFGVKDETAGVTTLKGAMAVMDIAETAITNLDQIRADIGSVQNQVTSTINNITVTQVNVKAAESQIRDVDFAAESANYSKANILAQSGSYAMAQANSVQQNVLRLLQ

[4] = target: Cj0643 (C. jejuni NCTC11168) (UniProt Q0PAM5)
[5] = target: Cj0240c (C. jejuni NCTC11168) (UniProt Q0PBR4)

For PyrB (C. jejuni NCTC11168), the binding [1] was “binds”.

In the case of FliS (from UniProt Q0PAW7), the binding [2] is reported as “binds” and the binding [3] is reported as “binds”.

B1: CheA (protein, UniProt Q0PBM2 1-769)
chain: MEDMQEILEDFLVEAFELVEQIDHDLVELESNPEDLELLNRIFRVAHTVKGSSSFLNFDVLTKLTHHMEDVLNKARHGELKITPDIMDVVLESIDRMKTLLNSIRDNGNDTAIGMDIEPICARLTAISEGESPVVATDSNEKSIPQAELEAPKQEIATPEPEVDVNQLSDSEVEAEIERLLKVRKAEDQARRAQKKQTTNAAPKPTNNTANKPTESGEKKVPASGSNASSMDQTIRVEVKRLDHLMNLIGELVLGKNRLLKIYDDVEERYEGEKFLEELNQVVSQLSIIITDVQLAVMKTRMQPIAKVFNKFPRVVRDLSRELGKQIELEITGEETELDKSIVEEIGDPIMHMIRNSCDHGVEDPATRAANGKPEKGIVQLKAYNEGNHIVVEITDDGKGLDPNGLKAKAIEKNLITEREADQMTDKEAFALIFKPGFSTAAKVTNVSGRGVGMDVVKTNIEKLNGVIEIDSELGKGSSFKLKIPLTLAIIQSLLVGTQEEFYAIPLASVLETVRVPIDDIYTIEGKNVLRLRDEVLSLVRLSDVFGVKQVLESGDQTYVVVIGVAESKLGIIVDTLVGQEEIVIKSMGDYLQNIQGIAGATIRGDGRVTLIIDVGAMMDMAKEIKVDIKAQLESSAKKPKEQPSDYKVLIVDDSKMDRTLMQKALEPLGVSLIEATNGVEALNIIKSGEHDIDAMLIDIEMPRMDGYTLAGEIRKYSKYRNLPLIAVTSRTSKTDRLRGVEVGMTEYITKPYSPEYLENVVRKNLKLG
For B1, the binding [4] was “binds”.

B2: Cj0980 (protein, UniProt Q0P9S2 1-422)
chain: MQNVIENFKQLCKIPHCSYETEQMKEFLSSYAKDKGFKVSVDKAGNIHAIKGKPKICLQSHYDMVCMGDAPNLEVYEENGFLRAKNSSLGADNGIGIAIMMSAMAEFENLECLFTNDEEVGLMGVNLLEHTLESKMLLNLDHESDDEIMIGCAGGVDIEASLSFNTLRKKGKIYELCAQNFKGGHSGINIIRNEKSSIKEMAKFIQENEGEIISFEGGERINSIPKHAKALVHFKDEVKSNNWIKCEFKEENEFEICDQSKKLLSLINSFTHGVRAYDENLDIVQTSINLATLRMQDNQIKFALFARSNILDGLKQVEFETLEFFKAFDFKIRSFNFYPPWEGKPNALSDMVFKALKKVSPNAKVSAIHAGLECGIIEKKQELLCASIGPNIHNPHSTDEHCEIASVEKISKVVFEVLKDNA
For B2, the binding [5] was “binds”.
